Numbering of substitutions follows the chain as printed. For at least one entry, the source does not settle the construct or the ends of the probe. Where a protein sequence is shown, tags need not be part of it.
Experiments:
Assay in all cases: binding assay
Details in all cases: dsDNA turnover higher than Hel308 Mbu; 400 mM KCl, 1 mM ATP, 10 mM MgCl2; purified recombinant protein
[1] = molecular target: T1, Hel308 Mbu-S288C (Methanococcoides burtonii) (UniProt Q12WZ6)
T1 sequence: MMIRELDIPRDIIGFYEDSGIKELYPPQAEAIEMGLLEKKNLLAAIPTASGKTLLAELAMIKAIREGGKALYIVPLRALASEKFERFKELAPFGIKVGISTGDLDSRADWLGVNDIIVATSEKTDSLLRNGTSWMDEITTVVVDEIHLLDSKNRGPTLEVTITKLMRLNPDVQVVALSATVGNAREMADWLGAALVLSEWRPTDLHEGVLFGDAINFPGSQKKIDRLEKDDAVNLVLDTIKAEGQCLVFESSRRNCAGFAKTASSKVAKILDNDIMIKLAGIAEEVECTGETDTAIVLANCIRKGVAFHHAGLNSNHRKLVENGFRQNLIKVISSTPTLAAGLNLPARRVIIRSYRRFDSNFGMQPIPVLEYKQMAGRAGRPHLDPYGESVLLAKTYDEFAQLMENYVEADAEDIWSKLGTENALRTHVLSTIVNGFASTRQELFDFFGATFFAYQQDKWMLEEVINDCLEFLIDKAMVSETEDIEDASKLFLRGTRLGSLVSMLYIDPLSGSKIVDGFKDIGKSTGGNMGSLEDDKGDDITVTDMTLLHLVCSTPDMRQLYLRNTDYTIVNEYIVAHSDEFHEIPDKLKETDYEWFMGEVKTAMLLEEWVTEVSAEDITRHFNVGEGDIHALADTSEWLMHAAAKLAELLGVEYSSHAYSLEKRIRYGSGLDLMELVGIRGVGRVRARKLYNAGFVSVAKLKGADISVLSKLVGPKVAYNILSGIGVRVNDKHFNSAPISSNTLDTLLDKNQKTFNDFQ

[2] = molecular target: T2, Hel308 Mbu-D274C (Methanococcoides burtonii) (UniProt Q12WZ6)
T2 sequence: T1 sequence with D274C, C288S

[3] = molecular target: T3, Hel308 Mbu-E284C (Methanococcoides burtonii) (UniProt Q12WZ6)
T3 sequence: T1 sequence with E284C, C288S

Measured: binding result

CGTGGTCACGAGGAGCTCGTCCTCACCTCGACGTCTGCACGAGCTTTTTTTTTTTTTTTTTTTTTTTTTTTTTTTTTTTTTTTTTTTT / TTTTTTTTTTTTTTTTTTTTTTTTTTTTTTTTTTTTTTTTTTTTGCTCGTGCAGACGTCGAGGTGAGGACGAGCTCCTCGTGACCACG [fluorescent turnover substrate]
binds: [1] | [2] | [3]
